# Measurements reported in the supplement of paper PMC3334620.
# Whole data set: some 33,000 sequences, median “E-score (-0.5 to 0.5)” near -0.0059, cut for the highest 2% near 0.26. Some of the results follow.
# Target: T1, Cin5 (UniProt P40917)
# T1 sequence: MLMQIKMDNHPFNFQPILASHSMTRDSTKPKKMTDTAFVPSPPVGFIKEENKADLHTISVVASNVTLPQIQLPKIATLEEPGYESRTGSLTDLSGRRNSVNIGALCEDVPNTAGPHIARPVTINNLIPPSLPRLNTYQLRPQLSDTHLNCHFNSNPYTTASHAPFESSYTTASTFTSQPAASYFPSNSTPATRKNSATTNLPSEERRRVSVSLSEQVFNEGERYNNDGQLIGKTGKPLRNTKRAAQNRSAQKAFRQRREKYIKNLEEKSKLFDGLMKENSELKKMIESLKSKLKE
# Experiment: PBM E-score (8-mer binding enrichment) (E-score (-0.5 to 0.5)); higher = stronger / more preferred TF binding
# Settings: protein concentration: 100 nM; construct: GST-full length
# Outline: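 Masliner-normalised scans of fluorescent anti-GST signal were the basis for scoring. That signal came from GST-tagged yeast transcription factors applied at about 100-200 nM to double-stranded universal all-10-mer Agilent arrays on fresh or once-stripped slides. Each ungapped eight-base word, pooled with its reverse complement, received an E-score from the Universal PBM Analysis Suite.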
row,Sequence,PBM E-score
1,AATAAGGT,0.16
2,ATGATAAG,0.204
3,ACAAGCGT,-0.0311
4,ATCTAGGA,-0.0915
5,ACCAATTC,0.129
6,CGGCTCCA,-0.18
7,CAAACAGA,0.147
8,ATTCCGCC,0.215
9,CCAGTGCG,-0.193
10,CATGTTGC,-0.00801
11,ATCTTTAG,0.0503
12,CCGATGAC,0.0129
13,CCACTCGG,-0.243
14,TATACGCA,0.105
15,AGTCGCGC,0.0623
16,ACAGCGAT,-0.0662
17,CGTCCTGC,-0.154
18,CGATGACC,-0.0747
19,CTGATGCA,0.0452
20,ATGAATCC,0.0999
21,GCATTCCA,-0.196
22,ATGGTGAA,-0.0746
23,AAAACTAA,0.275
24,CGCGAAAC,0.13
25,CGTACGTA,0.132

row,Sequence,PBM E-score
1,AGCGCAGA,-0.154
2,CTCATATA,0.0845
3,CGCATCCC,-0.278
4,GTTAAGTA,0.168
5,AATATCGA,0.326
6,CGCCGGTA,-0.0893
7,CAGCCGAA,-0.0165
8,CACGGGAG,-0.255
9,ACGGGCCT,-0.373
10,AAACTATT,0.124
11,GATCCGGC,-0.00016
12,CAATAGGA,-0.124
13,CGAACCCG,-0.162
14,ACAAACGC,0.0649
15,ACGCCGAA,-0.0631
16,CATCAATA,0.139
17,CGAAACCA,0.0433
18,ACCGATAT,-0.0255
19,AACATTAC,0.148
20,AACAACAC,0.235
21,CCATTCGG,-0.0124
22,AAGAGACT,-0.225
23,AGATATCT,-0.0465
24,CTCGGTAA,-0.0199
25,AGATGGGC,-0.0732

row,Sequence,PBM E-score
1,TAGTAATA,0.27
2,ACTACCAT,0.0887
3,ACTAGGGA,-0.0822
4,AAGCTTAT,0.231
5,CAAAGTAC,-0.0568
6,CACGAATA,0.225
7,AATTAAAC,0.203
8,AGGCTTAG,0.0724
9,GCAAGGAA,-0.0209
10,ACCCGTAT,-0.0338
11,GCGTCTAC,-0.146
12,AGATTCTA,0.00296
13,ATACTACG,0.108
14,CAGCCATC,0.022
15,AGCGGGCG,-0.0666
16,CAGGTCGG,-0.116
17,GCAGGAGA,-0.109
18,ACCACTTA,-0.00102
19,CTATCCGC,0.151
20,GACCCAGC,-0.271
21,CTTATTGA,0.125
22,ATGCGGCA,0.0715
23,GATCGCTA,0.021
24,GCACTGGA,-0.0638
25,AAAGTAGA,0.0339

row,Sequence,PBM E-score
1,CTCGACGA,-0.0716
2,CCTGCTCG,-0.226
3,CTCAGGGA,-0.0496
4,GCCAATCC,-0.0446
5,CGGCGGAG,-0.0743
6,GCAATTTA,0.137
7,AGAGTGCC,-0.0683
8,CTAAGGGC,-0.112
9,AAACGCAT,-0.113
10,TATGATAA,0.252
11,TCGGGAAA,0.141
12,GTCTAATA,0.0261
13,ATAATCAA,0.227
14,ATTTGACA,0.0242
15,CCATCCGA,0.0754
16,CGGATAAA,0.246
17,CCCGACTA,-0.121
18,AGGCTCGG,-0.215
19,CAGCGCAC,-0.179
20,ATTGCCGG,-0.065
21,TATTGGAA,-0.0281
22,ACTTTACA,0.0908
23,CGCTCTAC,-0.0468
24,AGAAACCG,-0.00823
25,GTCTGATA,-0.0398

row,Sequence,PBM E-score
1,GCAGGGGC,-0.128
2,CACGGAGA,-0.00118
3,AACATGTT,-0.00177
4,GCCGATAA,-0.12
5,CTCCAGGA,-0.221
6,CGGGCACA,-0.123
7,CGACCGCC,-0.117
8,TAAAATCA,0.101
9,ACCTCAAT,-0.00034
10,AAGTTTCG,-0.00445
11,AAGTGATA,-0.0276
12,TAATTGGA,0.0455
13,AGTACTTG,0.0512
14,CGATCAGA,-0.114
15,CGAATATA,0.122
16,CAAGCCTC,-0.179
17,TTCAGAAA,-0.211
18,ATGTAATG,0.193
19,AACAGGCC,-0.226
20,CCAAACCC,0.0807
21,CGGGGCGC,-0.211
22,ACGGCGGG,-0.00798
23,GGAGCAAA,0.0065
24,GGGTCAAA,0.0244
25,AGTCCCTA,-0.176

# Another view of part of the listing above.
row	Sequence	PBM E-score
14	CGATCAGA	-0.114
19	AACAGGCC	-0.226
24	GGGTCAAA	0.0244

# (cont.)

row,Sequence,PBM E-score
1,ATAGGATA,0.0444
2,ATGCGCAG,-0.13
3,GTTTCCAA,-0.0235
4,CTAACAAC,0.0568
5,ACGTATAG,-0.0505
6,AACTTACC,0.00363
7,GACTAAAA,-0.013
8,GCTTCCAA,-0.0421
9,CCGGTATA,0.0476
10,ACGGATCA,0.121
11,AAATTCTA,-0.0974
12,AGTCAATA,0.117
13,GCTTTGCC,-0.186
14,AGCGGCGA,0.193
15,TTAACTAA,0.343
16,AACCTGGG,-0.124
17,GCAAAGTA,0.175
18,TCCCCACA,-0.143
19,CCCGCACA,-0.0333
20,AAGGTTGT,0.0748
21,AAAGCTTG,0.0216
22,GGGTTCTA,-0.0388
23,AAAAGCCC,-0.0247
24,AGTGAGGA,-0.079
25,CTTCTATA,-0.0912

row,Sequence,PBM E-score
1,CATACGAG,-0.0517
2,AATACCCT,0.045
3,GCGCAGGA,-0.201
4,CCTTACCC,-0.154
5,CACTGACA,0.0409
6,CATCAATG,0.0915
7,CTGTTCAC,8e-05
8,CTCCGGTA,-0.0531
9,AAAGTCTG,-0.015
10,TCAGCTCA,0.2
11,ATTACCCG,0.0913
12,ATGCTTCC,-0.0337
13,ACACGGCA,-0.128
14,CTCCGCTC,-0.0442
15,ACAGGCAG,0.0102
16,ACACCTGA,0.139
17,GTTAGCGA,0.0366
18,AAGGAATC,-0.0453
19,AGCCTCAA,-0.212
20,GCCTTCTA,-0.149
21,ACCTTATC,0.0648
22,CCGGTGGC,-0.263
23,AAGACGGT,-0.171
24,GTTGTGCA,-0.0995
25,AACTTCGT,-0.032

row,Sequence,PBM E-score
1,CCCACCCG,0.293
2,ATGTACTC,0.0954
3,ACCCAATG,-0.0441
4,ACGGCATC,-0.0378
5,GTTTTTGA,0.0409
6,CCGTGGCC,-0.228
7,ATCCATGA,0.0386
8,CAGGACCA,-0.107
9,CTGAAAAG,0.0629
10,GAACGTTC,-0.134
11,ATTGCCAC,0.0224
12,AGCGATTA,0.127
13,GAGCGTAC,-0.075
14,AGCCGAAG,-0.0693
15,CTGAGCAA,-0.0216
16,CCTTGCAC,-0.0869
17,GACGTCTC,-0.0746
18,GAGTGAAA,0.118
19,ATCTAGGG,0.0573
20,TCCAACCA,0.0295
21,ATCGTGCC,-0.155
22,CAGATCTC,-0.0708
23,AGGCTCCC,-0.293
24,AGCACACC,-0.128
25,AACCAAAC,-0.0491

# Part of the list above, with tabs.
row	Sequence	PBM E-score
4	ACGGCATC	-0.0378
9	CTGAAAAG	0.0629
10	GAACGTTC	-0.134
19	ATCTAGGG	0.0573
25	AACCAAAC	-0.0491

# Two entries drawn at random from the list so far, as already listed:
row,Sequence,PBM E-score
5,GTTTTTGA,0.0409
2,ATGTACTC,0.0954

# (listing goes on)

row,Sequence,PBM E-score
1,ACCAAAAA,0.234
2,ATTTAGGC,0.104
3,ATCCTAGG,-0.113
4,CCTACAGA,-0.187
5,ACCCCGGT,-0.186
6,CTGGAGCC,-0.204
7,AATGGGGT,0.101
8,GGTTAAAC,-0.00883
9,CGTAGTTC,-0.162
10,GCCGAGGC,0.00479
11,ATTTGGGC,0.00638
12,CTTAAGGC,-0.0955
13,ATCGCTTC,0.00288
14,GCAAACCA,0.0992
15,CGAGCACG,0.0135
16,AGCGAGAT,0.114
17,CTGCAGGC,-0.329
18,GCTAAACA,0.0163
19,CTATGCCA,-0.0387
